According to doi:10.1101/2025.07.22.666160:
Read-outs that look alike come from different tables or passages of the source. Results are given in words; binding and its absence hold for the method and conditions named. In cells and extracts the contact can be indirect. Some binding calls cover weakened binding; strength is not graded here. For some of these results: Where a sequence is shown, tags or fusion partners need not be part of it.

Protein sequences, listed by entry. Tags and fused reporters are not part of them.
UniProt P62136, whole entry: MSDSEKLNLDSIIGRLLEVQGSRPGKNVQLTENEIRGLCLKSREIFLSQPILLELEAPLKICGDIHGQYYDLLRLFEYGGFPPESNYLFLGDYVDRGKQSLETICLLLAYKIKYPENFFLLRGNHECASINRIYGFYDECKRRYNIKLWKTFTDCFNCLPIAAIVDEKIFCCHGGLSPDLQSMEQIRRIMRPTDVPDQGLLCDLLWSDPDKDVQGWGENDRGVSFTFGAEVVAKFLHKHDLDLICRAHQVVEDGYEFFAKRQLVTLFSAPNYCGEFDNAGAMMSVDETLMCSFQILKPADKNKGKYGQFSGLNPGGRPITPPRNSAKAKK

T1: VZV pORF38-GFP (wild type) (VZV) (UniProt P09289)
T1 sequence: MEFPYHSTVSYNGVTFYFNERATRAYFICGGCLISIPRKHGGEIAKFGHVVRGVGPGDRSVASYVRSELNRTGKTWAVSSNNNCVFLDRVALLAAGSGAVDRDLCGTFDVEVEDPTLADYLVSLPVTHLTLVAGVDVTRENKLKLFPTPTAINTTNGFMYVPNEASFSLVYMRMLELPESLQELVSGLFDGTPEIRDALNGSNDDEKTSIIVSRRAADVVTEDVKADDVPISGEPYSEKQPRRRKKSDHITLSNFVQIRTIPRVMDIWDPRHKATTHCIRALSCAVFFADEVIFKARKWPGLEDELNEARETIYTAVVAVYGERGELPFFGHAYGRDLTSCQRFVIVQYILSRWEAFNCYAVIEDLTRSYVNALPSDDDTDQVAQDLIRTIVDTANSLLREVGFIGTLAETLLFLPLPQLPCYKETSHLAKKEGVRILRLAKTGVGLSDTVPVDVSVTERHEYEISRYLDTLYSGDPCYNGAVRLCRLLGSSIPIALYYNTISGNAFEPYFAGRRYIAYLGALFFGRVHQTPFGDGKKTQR

B1: endogenous CERT (ceramide transport protein) (protein, UniProt Q9Y5P4 1-624)
chain: MSDNQSWNSSGSEEDPETESGPPVERCGVLSKWTNYIHGWQDRWVVLKNNALSYYKSEDETEYGCRGSICLSKAVITPHDFDECRFDISVNDSVWYLRAQDPDHRQQWIDAIEQHKTESGYGSESSLRRHGSMVSLVSGASGYSATSTSSFKKGHSLREKLAEMETFRDILCRQVDTLQKYFDACADAVSKDELQRDKVVEDDEDDFPTTRSDGDFLHSTNGNKEKLFPHVTPKGINGIDFKGEAITFKATTAGILATLSHCIELMVKREDSWQKRLDKETEKKRRTEEAYKNAMTELKKKSHFGGPDYEEGPNSLINEEEFFDAVEAALDRQDKIEEQSQSEKVRLHWPTSLPSGDAFSSVGTHRFVQKPYSRSSSMSSIDLVSASDDVHRFSSQVEEMVQNHMTYSLQDVGGDANWQLVVEEGEMKVYRREVEENGIVLDPLKATHAVKGVTGHEVCNYFWNVDVRNDWETTIENFHVVETLADNAIIIYQTHKRVWPASQRDVLYLSVIRKIPALTENDPETWIVCNFSVDHDSAPLNNRCVRAKINVAMICQTLVSPPEGNQEISRDNILCKITYVANVNPGGWAPASVLRAVAKREYPKFLKRFTSYVQEKTAGKPILF

How the values were obtained:
Test in all cases: co-IP
[1] = molecular target: T1, VZV pORF38-GFP (wild type) (VZV)
[2] = molecular target: HSV-1 pUL21-GFP (wild type) (HSV-1) (UniProt F8RG07)
[3] = molecular target: HSV-1 pUL21-GFP (wild type) (HSV-1) (UniProt F8RG07); remark: listed apart in the source

Row | Molecule | binding [1] | binding [2] | binding [3]
1 | endogenous PP1α (from UniProt P62136 1-330) (enzyme) | binds | binds | –
2 | Myc-tagged human PP1α (wild type) (from UniProt P62136 1-330) (enzyme) | – | binds | –
3 | B1 | – | – | binds
